Earlier results as cited in patent publication US4652575A, “2-(ethylene-thio methyl furanyl)amino thiazole derivatives having acid secretion inhibiting activity” (Medosan Industrie Biochimiche Riunite S.p.A., priority 1984, dated 1987).
At least one read-out could not be matched to a standard name with certainty.

Tested on: Wistar rat
Settings: value known from Brimbelcombe R. W., J. Int. Med. Res., 3,86,1975; cited from earlier work

SMILES: CN/C(=N/CCSCc1nc[nH]c1C)NC#N [Cimetidine, reference compound]
- DL50: 5.000 mg/kg/os
